# From patent publication US8647119B1, “Methods and kits with fluorescent probes for caries detection” (President and Fellows of Harvard College, priority 2006, dated 2014)
smiles,measurement,setting,value
OO [hydrogen peroxide],fluorescence of OsteoSense 750 bound to caries lesion after application,"hydrogen peroxide 38% applied with a syringe, FIG. 18",eliminated fluorescence
same,fluorescence indicating presence of the bound probe,ten minutes after hydrogen peroxide 38%,substantially eliminated
same,fluorescence of the probe bound to the tooth,three minutes after hydrogen peroxide 38%,substantially reduced
